Results are given in words; binding and its absence hold for the method and conditions named. Binding seen in cells or lysates may run through a third protein. A yes stands for co-enrichment or nearness to the bait. Other partners may have been found.
Target: recombinant FLAG-tagged Themis2 protein (mouse) (UniProt Q91YX0)
Assay: affinity purification with mass spectrometry; 2 mg nuclear proteins of effector Themis2-/- NK cells incubated with 200 ug purified Themis2-FLAG for 3 h at 4 °C; cross-linked with 1 mM DTSSP; anti-FLAG M2 affinity gel, eluted with 3x FLAG peptides; unique silver-stained bands analysed by MALDI-TOF, MASCOT; only the target purified

Amino acid sequences for entries named in this document (tags omitted).
UniProt Q91YX0: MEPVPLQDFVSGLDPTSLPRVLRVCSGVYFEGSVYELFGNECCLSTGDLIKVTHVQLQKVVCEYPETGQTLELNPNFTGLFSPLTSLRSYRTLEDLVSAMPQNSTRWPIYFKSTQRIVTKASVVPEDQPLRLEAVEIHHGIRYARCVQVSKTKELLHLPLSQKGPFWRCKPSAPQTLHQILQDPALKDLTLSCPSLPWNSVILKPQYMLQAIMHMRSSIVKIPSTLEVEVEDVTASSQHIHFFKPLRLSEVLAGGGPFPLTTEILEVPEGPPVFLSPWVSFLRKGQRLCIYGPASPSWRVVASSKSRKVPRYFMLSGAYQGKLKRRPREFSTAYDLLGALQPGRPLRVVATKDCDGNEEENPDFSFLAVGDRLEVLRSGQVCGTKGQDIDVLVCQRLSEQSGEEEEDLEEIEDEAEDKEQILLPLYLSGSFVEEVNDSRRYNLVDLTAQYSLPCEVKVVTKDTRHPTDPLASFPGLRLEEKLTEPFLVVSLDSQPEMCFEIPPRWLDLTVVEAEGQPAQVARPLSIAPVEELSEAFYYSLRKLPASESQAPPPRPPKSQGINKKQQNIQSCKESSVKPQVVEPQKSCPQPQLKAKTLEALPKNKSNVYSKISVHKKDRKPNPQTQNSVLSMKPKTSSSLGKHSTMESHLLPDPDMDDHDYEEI

binding: binds
B1: Zfp740 (protein, UniProt Q6NZQ6 1-180)
chain: MMLSQIASKQAENGERAGSPDVLRCSSQMDCKPRFDLSSKGHRKDSDKSRNRKEDDSLAEASHSKKTVKKVVVVEQNGSFQVKIPKNFICEHCFGAFRSSYHLKRHVLIHTGEKPFECDVCDMRFIQKYHLERHKRVHSGEKPYQCERCHQCFSRTDRLLRHKRMCQGCQSKTSEGQFSL
